This is one part of the list. Further columns of the screen follow, without active or inactive calls. For some assays here: Compounds called inactive in the main read-out are mostly missing here. Bridge positions count the residues as written; N and C are the ends. Square brackets hold non-standard residues; d marks the D form. Peptide text beside a SMILES is read from it. * marks the point of attachment. ξ: configuration not given here. ξDab(CH2SO3H) = NC(CCNCS(=O)(=O)O)C(=O)O; Heptanoyl(6-Me) = CC(C)CCCCC(=O)*; Dab = NCC[CH](N)C(=O)O
Assays:
[1] = biological target: Huntingtin (Homo sapiens) (UniProt P42858); assay: inhibitors of mutant Htt aggregation in vitro, dose response, QA1 (AID 1584); conditions: in vitro mutant huntingtin aggregation assay; confirmation test; at 10 µM; stronger effect = lower value
PubChem AID 1586 = conditions: yeast two-hybrid polyglutamine protein interaction, reporter readout; measured here: averaged growth delta OD
[2] = enhancers of SMN2 over SMN1 splicing, cell-based, SMN2/SMN1 luciferase reporters (AID 1598); conditions: SMN2 vs SMN1 luciferase splicing reporter cells, at 10 µM; SMN1 luciferase ratio: measured here: SMN1 luciferase reporter average; SMN2 luciferase ratio: measured here: SMN2 luciferase reporter average, stronger effect = higher value
[3] = protection against mutant huntingtin cytotoxicity, PC12 cells, LDH release (AID 1610); conditions: PC12 mutant huntingtin toxicity, final LDH at 4 uM, stronger effect = lower value

By UniProt entry, the sequences of proteins in these tests, tags left out.
UniProt P42858, whole entry, looked up: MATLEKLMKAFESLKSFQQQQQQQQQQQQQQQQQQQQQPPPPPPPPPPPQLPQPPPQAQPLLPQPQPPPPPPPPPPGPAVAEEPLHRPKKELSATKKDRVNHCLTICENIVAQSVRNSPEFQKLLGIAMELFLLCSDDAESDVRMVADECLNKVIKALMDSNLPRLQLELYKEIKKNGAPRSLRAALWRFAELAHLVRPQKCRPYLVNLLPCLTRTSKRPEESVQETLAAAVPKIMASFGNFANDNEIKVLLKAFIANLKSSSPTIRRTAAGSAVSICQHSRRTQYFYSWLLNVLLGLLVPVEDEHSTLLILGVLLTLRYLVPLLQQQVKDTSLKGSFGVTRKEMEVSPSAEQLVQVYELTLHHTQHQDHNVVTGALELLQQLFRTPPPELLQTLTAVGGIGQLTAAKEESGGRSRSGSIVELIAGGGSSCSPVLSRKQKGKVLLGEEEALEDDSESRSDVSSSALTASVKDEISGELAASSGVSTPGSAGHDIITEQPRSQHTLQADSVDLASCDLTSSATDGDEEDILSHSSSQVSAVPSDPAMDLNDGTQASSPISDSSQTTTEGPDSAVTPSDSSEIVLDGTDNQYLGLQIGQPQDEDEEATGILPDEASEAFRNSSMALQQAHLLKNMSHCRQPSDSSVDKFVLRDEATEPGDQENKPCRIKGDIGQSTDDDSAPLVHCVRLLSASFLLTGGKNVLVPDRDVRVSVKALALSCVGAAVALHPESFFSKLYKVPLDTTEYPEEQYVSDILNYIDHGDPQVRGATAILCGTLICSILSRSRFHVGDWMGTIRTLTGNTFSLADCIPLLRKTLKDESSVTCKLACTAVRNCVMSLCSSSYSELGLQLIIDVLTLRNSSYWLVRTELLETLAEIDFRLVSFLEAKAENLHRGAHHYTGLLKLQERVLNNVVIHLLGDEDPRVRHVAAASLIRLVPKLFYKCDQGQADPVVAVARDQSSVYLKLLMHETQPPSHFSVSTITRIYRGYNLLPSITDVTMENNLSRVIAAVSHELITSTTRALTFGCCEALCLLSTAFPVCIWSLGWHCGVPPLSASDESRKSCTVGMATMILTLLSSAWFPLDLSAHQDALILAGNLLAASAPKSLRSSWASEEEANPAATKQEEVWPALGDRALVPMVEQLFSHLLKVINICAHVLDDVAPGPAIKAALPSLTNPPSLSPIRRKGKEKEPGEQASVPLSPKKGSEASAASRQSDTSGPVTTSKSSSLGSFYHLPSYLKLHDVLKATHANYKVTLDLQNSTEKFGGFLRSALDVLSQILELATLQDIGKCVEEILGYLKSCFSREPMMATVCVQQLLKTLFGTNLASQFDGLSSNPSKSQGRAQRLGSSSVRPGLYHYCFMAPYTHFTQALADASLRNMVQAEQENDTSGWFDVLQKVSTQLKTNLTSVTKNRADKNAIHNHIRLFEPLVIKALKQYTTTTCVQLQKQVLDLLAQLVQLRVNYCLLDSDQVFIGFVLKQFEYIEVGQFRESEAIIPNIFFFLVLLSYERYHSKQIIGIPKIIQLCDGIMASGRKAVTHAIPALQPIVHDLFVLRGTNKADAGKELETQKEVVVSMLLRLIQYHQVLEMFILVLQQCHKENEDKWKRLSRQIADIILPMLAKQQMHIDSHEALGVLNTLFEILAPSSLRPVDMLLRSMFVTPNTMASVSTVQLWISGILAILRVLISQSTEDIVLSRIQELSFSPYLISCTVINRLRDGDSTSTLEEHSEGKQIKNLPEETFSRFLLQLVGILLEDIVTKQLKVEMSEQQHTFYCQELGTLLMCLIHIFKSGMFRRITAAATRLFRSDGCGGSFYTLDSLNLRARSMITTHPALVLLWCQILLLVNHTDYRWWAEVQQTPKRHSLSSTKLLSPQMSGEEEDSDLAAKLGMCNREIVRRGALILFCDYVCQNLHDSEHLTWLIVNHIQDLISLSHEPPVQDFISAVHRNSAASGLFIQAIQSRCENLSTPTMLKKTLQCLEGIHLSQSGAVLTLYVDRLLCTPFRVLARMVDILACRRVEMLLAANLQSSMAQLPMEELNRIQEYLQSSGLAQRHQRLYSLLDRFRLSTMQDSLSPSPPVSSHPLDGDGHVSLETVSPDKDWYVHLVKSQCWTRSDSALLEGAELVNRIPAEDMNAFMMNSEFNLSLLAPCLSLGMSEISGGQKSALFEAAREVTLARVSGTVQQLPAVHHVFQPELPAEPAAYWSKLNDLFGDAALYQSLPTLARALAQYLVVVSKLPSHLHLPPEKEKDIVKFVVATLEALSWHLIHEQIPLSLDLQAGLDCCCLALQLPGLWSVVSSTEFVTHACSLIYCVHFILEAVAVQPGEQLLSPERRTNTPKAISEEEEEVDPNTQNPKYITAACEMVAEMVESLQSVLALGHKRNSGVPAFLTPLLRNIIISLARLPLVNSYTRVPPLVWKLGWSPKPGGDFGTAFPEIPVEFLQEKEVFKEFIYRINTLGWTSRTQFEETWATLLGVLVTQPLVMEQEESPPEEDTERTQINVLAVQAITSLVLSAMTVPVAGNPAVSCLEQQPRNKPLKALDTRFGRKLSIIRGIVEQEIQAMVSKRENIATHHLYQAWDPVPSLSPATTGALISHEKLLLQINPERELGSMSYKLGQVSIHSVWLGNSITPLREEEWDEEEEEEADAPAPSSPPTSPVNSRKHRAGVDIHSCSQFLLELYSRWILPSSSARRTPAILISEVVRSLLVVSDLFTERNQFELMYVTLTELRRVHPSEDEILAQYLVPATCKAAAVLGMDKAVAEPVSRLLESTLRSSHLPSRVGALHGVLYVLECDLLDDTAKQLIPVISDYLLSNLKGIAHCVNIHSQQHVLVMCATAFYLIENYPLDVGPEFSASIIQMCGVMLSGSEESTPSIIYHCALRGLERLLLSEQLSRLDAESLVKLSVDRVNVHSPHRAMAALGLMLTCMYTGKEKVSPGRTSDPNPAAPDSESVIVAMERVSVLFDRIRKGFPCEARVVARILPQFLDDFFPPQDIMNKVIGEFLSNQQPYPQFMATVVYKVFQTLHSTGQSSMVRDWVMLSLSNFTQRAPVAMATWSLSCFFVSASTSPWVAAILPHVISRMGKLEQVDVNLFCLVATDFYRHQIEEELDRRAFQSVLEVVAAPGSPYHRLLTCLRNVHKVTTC

## O=c1c(O)c(-c2ccc(O)c(O)c2)oc2cc(O)cc(O)c12
[1]
  aggregation ratio: 0.688
PubChem AID 1586
  signal change (36 h minus 0 h): 0.138
[2]
  SMN1 luciferase ratio: 0.98
  SMN2 luciferase ratio: 0.86
[3]
  normalised LDH release: 1.02

## COc1cccc(OC)c1C(=O)N[C@@H]1C(=O)N2[C@@H]1SC(C)(C)[C@@H]2C(=O)O
[1]
  aggregation ratio: 1.06
PubChem AID 1586
  signal change (36 h minus 0 h): 0.18
[2]
  SMN1 luciferase ratio: 0.91
  SMN2 luciferase ratio: 0.91
[3]
  normalised LDH release: 0.625

## CC(Cc1ccc(O)c(O)c1)C(C)Cc1ccc(O)c(O)c1 (stereo not given)
[1]
  aggregation ratio: 0.981
PubChem AID 1586
  signal change (36 h minus 0 h): 0.235
[2]
  SMN1 luciferase ratio: 0.98
  SMN2 luciferase ratio: 0.96

## CC(C)=CCc1c2c(c3occ(-c4ccc(O)c(O)c4)c(=O)c3c1O)C=CC(C)(C)O2
[1]
  aggregation ratio: 0.995
PubChem AID 1586
  signal change (36 h minus 0 h): 0.366
[2]
  SMN1 luciferase ratio: 0.94
  SMN2 luciferase ratio: 0.99
[3]
  normalised LDH release: 1.12

## O=c1c(O)cc2c(O)oc3c(=O)c(O)cc4c3c2c1CC=4O
[1]
  aggregation ratio: 0.836
PubChem AID 1586
  signal change (36 h minus 0 h): 0.0442
[2]
  SMN1 luciferase ratio: 0.91
  SMN2 luciferase ratio: 0.85
[3]
  normalised LDH release: 1.04

## CN1CCc2cccc3c2C1Cc1ccc(O)c(O)c1-3 (stereo not given)
[1]
  aggregation ratio: 1.05
PubChem AID 1586
  signal change (36 h minus 0 h): 0.176
[2]
  SMN1 luciferase ratio: 0.93
  SMN2 luciferase ratio: 0.92

## CCCCC1(COC(=O)CCC(=O)O)C(=O)N(c2ccccc2)N(c2ccccc2)C1=O
[1]
  aggregation ratio: 1.1
PubChem AID 1586
  signal change (36 h minus 0 h): 0.177
[2]
  SMN1 luciferase ratio: 0.82
  SMN2 luciferase ratio: 0.85
[3]
  normalised LDH release: 0.847

## CN(C)c1ccc(O)c2c1C[C@H]1C[C@H]3[C@H](N(C)C)C(=O)C(C(N)=O)=C(O)[C@@]3(O)C(=O)C1=C2O
[1]
  aggregation ratio: 1.04
PubChem AID 1586
  signal change (36 h minus 0 h): 0.214
[2]
  SMN1 luciferase ratio: 0.86
  SMN2 luciferase ratio: 0.77
[3]
  normalised LDH release: 0.112

## NC[C@H](O)c1ccc(O)c(O)c1
[1]
  aggregation ratio: 0.874
PubChem AID 1586
  signal change (36 h minus 0 h): 0.0376
[2]
  SMN1 luciferase ratio: 0.96
  SMN2 luciferase ratio: 0.93
[3]
  normalised LDH release: 0.426

## C=C1CC[C@H](O)C/C1=C/C=C1\CCC[C@]2(C)C([C@H](C)/C=C/[C@H](C)C(C)C)CC[C@@H]12 (stereo not given in full)
[1]
  aggregation ratio: 0.704
PubChem AID 1586
  signal change (36 h minus 0 h): 0.101
[2]
  SMN1 luciferase ratio: 0.86
  SMN2 luciferase ratio: 0.89
[3]
  normalised LDH release: 0.85

## Cn1c(=O)c2[nH]cnc2n(C)c1=O
PubChem AID 1586
  signal change (36 h minus 0 h): 0.165
[2]
  SMN1 luciferase ratio: 0.83
  SMN2 luciferase ratio: 0.88
[3]
  normalised LDH release: 1

## CCC(C)C1NC(=O)C(CCNCS(=O)(=O)O)NC(=O)C(NC(=O)C(CCNCS(=O)(=O)O)NC(=O)C(NC(=O)C(CCNCS(=O)(=O)O)NC(=O)CCCCC(C)C)C(C)O)CCNC(=O)C(C(C)O)NC(=O)C(CCNCS(=O)(=O)O)NC(=O)C(CCNCS(=O)(=O)O)NC(=O)C(C(C)CC)NC1=O (stereo not given) ({Heptanoyl(6-Me)}-[ξDab(CH2SO3H)]T[ξDab(CH2SO3H)][Dab][ξDab(CH2SO3H)]II[ξDab(CH2SO3H)][ξDab(CH2SO3H)]T; lactam 4-C; configuration not given here)
PubChem AID 1586
  signal change (36 h minus 0 h): 0.181
[2]
  SMN1 luciferase ratio: 0.83
  SMN2 luciferase ratio: 0.75
[3]
  normalised LDH release: 0.994

## C[C@]12C=CC(=O)C=C1CCC1C3C[C@@H](O)[C@](O)(C(=O)CO)[C@@]3(C)C[C@H](O)[C@@]12F (stereo not given in full)
PubChem AID 1586
  signal change (36 h minus 0 h): 0.199
[2]
  SMN1 luciferase ratio: 0.99
  SMN2 luciferase ratio: 1.05
[3]
  normalised LDH release: 0.343

## Cc1c(C(N)=O)cc([N+](=O)[O-])cc1[N+](=O)[O-]
PubChem AID 1586
  signal change (36 h minus 0 h): 0.269
[2]
  SMN1 luciferase ratio: 0.93
  SMN2 luciferase ratio: 0.9
[3]
  normalised LDH release: 0.677

## CC[C@H]1OC(=O)[C@H](C)[C@@H](O[C@H]2C[C@@](C)(OC)[C@@H](O)[C@H](C)O2)[C@H](C)[C@@H](O[C@@H]2O[C@H](C)C[C@H](N(C)C)[C@H]2O)[C@](C)(O)C[C@@H](C)/C(=N\OCOCCOC)[C@H](C)[C@@H](O)[C@]1(C)O
PubChem AID 1586
  signal change (36 h minus 0 h): 0.089
[2]
  SMN1 luciferase ratio: 0.9
  SMN2 luciferase ratio: 0.95
[3]
  normalised LDH release: 0.902

## CCN(CCCCOC(=O)c1ccc(OC)c(OC)c1)C(C)Cc1ccc(OC)cc1 (stereo not given)
PubChem AID 1586
  signal change (36 h minus 0 h): 0.165
[2]
  SMN1 luciferase ratio: 0.83
  SMN2 luciferase ratio: 0.82
[3]
  normalised LDH release: 0.736

## CN[C@@H]1[C@H](O)[C@H](NC)[C@H]2O[C@@]3(O)C(=O)C[C@@H](C)O[C@H]3O[C@@H]2[C@H]1O
PubChem AID 1586
  signal change (36 h minus 0 h): 0.2
[2]
  SMN1 luciferase ratio: 0.88
  SMN2 luciferase ratio: 0.9
[3]
  normalised LDH release: 0.876

## CC(C)(Sc1cc(C(C)(C)C)c(O)c(C(C)(C)C)c1)Sc1cc(C(C)(C)C)c(O)c(C(C)(C)C)c1
PubChem AID 1586
  signal change (36 h minus 0 h): 0.0992
[2]
  SMN1 luciferase ratio: 0.93
  SMN2 luciferase ratio: 0.9
[3]
  normalised LDH release: 0.587

## COc1ccc2c(c1OC)C(=O)OC2[C@H]1c2c(cc3c(c2OC)OCO3)CCN1C (stereo not given in full)
PubChem AID 1586
  signal change (36 h minus 0 h): -0.0035
[2]
  SMN1 luciferase ratio: 0.99
  SMN2 luciferase ratio: 0.86
[3]
  normalised LDH release: 0.931

## O=C(O)c1cccnc1C(=O)O
PubChem AID 1586
  signal change (36 h minus 0 h): 0.0925
[2]
  SMN1 luciferase ratio: 0.98
  SMN2 luciferase ratio: 0.96
[3]
  normalised LDH release: 0.843

## C[C@H](CCC(=O)O)[C@H]1CCC2C3C(CC[C@@]21C)[C@@]1(C)CC[C@@H](O)C[C@H]1C[C@H]3O (stereo not given in full)
PubChem AID 1586
  signal change (36 h minus 0 h): 0.0328
[2]
  SMN1 luciferase ratio: 0.97
  SMN2 luciferase ratio: 0.91
[3]
  normalised LDH release: 0.987

## CN1CCC[C@H]1c1cccnc1
PubChem AID 1586
  signal change (36 h minus 0 h): 0.0568
[2]
  SMN1 luciferase ratio: 1
  SMN2 luciferase ratio: 1.06
[3]
  normalised LDH release: 0.94

## CC1=C(/C=C/C(C)=C/C=C/C(C)=C/CO)C(C)(C)CCC1
PubChem AID 1586
  signal change (36 h minus 0 h): 0.19
[2]
  SMN1 luciferase ratio: 0.95
  SMN2 luciferase ratio: 0.84
[3]
  normalised LDH release: 1.2

## CCOC(=O)CCCCCCCCCCCCC1C=CCC1 (stereo not given)
PubChem AID 1586
  signal change (36 h minus 0 h): 0.146
[2]
  SMN1 luciferase ratio: 0.95
  SMN2 luciferase ratio: 1.01
[3]
  normalised LDH release: 0.511

## CC(C)CC(NC(=O)CCN)C(=O)O (stereo not given)
PubChem AID 1586
  signal change (36 h minus 0 h): 0.0514
[2]
  SMN1 luciferase ratio: 0.99
  SMN2 luciferase ratio: 0.96
[3]
  normalised LDH release: 1

## CN[C@@H]1C(OC2[C@H](O[C@H]3[C@H](O)[C@@H](O)[C@H](N=C(N)N)[C@@H](O)[C@@H]3N=C(N)N)OC(C)[C@]2(O)CO)OC(CO)C(O)C1O (stereo not given in full)
PubChem AID 1586
  signal change (36 h minus 0 h): 0.157
[2]
  SMN1 luciferase ratio: 0.94
  SMN2 luciferase ratio: 0.85
[3]
  normalised LDH release: 0.991

## Nc1ccc(N=Nc2ccccc2)c(N)n1
PubChem AID 1586
  signal change (36 h minus 0 h): 0.113
[2]
  SMN1 luciferase ratio: 1.03
  SMN2 luciferase ratio: 1.19
[3]
  normalised LDH release: 1.08

## CCCC(CCC)C(=O)O
PubChem AID 1586
  signal change (36 h minus 0 h): 0.183
[2]
  SMN1 luciferase ratio: 0.94
  SMN2 luciferase ratio: 0.98
[3]
  normalised LDH release: 0.911

## Cc1cc(C(C)(C)C)cc(C)c1CC1=NCCN1
PubChem AID 1586
  signal change (36 h minus 0 h): 0.0906
[2]
  SMN1 luciferase ratio: 0.85
  SMN2 luciferase ratio: 0.88
[3]
  normalised LDH release: 0.925

## CC12CC[C@@H]3c4ccc(O)cc4CCC3[C@@H]1CCC2=O (stereo not given in full)
PubChem AID 1586
  signal change (36 h minus 0 h): 0.076
[2]
  SMN1 luciferase ratio: 0.92
  SMN2 luciferase ratio: 0.81
[3]
  normalised LDH release: 1.23

## CCC(=O)OC1CCC2C3CCc4cc(O)ccc4C3CCC12C (stereo not given)
PubChem AID 1586
  signal change (36 h minus 0 h): 0.105
[2]
  SMN1 luciferase ratio: 0.82
  SMN2 luciferase ratio: 0.84
[3]
  normalised LDH release: 1.41

## Cc1ccc(Cl)c(Nc2ccccc2C(=O)O)c1Cl
PubChem AID 1586
  signal change (36 h minus 0 h): 0.0767
[2]
  SMN1 luciferase ratio: 0.89
  SMN2 luciferase ratio: 0.9
[3]
  normalised LDH release: 1.13

## O=C(O)CN(CCN(CC(=O)O)CC(=O)O)CC(=O)O
PubChem AID 1586
  signal change (36 h minus 0 h): 0.0911
[2]
  SMN1 luciferase ratio: 0.87
  SMN2 luciferase ratio: 0.9
[3]
  normalised LDH release: 0.962

Reference: PubChem BioAssay
